Laboratory results reported in PubChem BioAssay AID485298 (National Center for Advancing Translational Sciences (NCATS), 2010).
The campaign covered roughly 320,000 compounds. About 740 (0.23%) were called active. The inconclusive results got no clear call from the source; some entries with a clear call stand among them for comparison. Calls come from the whole dose curve; as a rule, active = well fitted activation curve with a large enough effect; inconclusive = small, poorly fitted or top-dose-only effect; inactive = no such curve, though single readings can be large or run the other way. A potency beside an inconclusive call is a rough fit, not a confirmed value.
Potency is the fitted concentration of half-maximal effect.

Experiment: qHTS Assay for Small Molecule Inhibitors of Mitochondrial Division or Activators of Mitochondrial Fusion; note: nearly all actives have a fitted effect of over 45% in size; for growth rescue (activation): % of control where 0% means no effect
Settings: S. cerevisiae fusion-defective mutant growth rescue, CellTiterGlo 48 h; growth rescue (activation): at 46.1 µM (top of the series) unless noted
How it was run: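 S. cerevisiae fusion-defective temperature-sensitive mutants (e.g. fzo1-1, mgm1-5) grown 48 h at 37C in YPEG (ethanol/glycerol non-fermentable) medium with 23 nl compound per well; growth rescue read as CellTiterGlo luminescence.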
With `CC(C)CCC1(CCNC(=O)c2cccs2)CCOC(C)(C)C1` (stereo not drawn) the Potency was inconclusive: 11.2 µM [activator, partial curve]. In the case of `CNC(=O)c1sc(Nc2ccc(OCc3ccccc3)cc2)nc1C`, the Potency is reported as inconclusive: 7.94 µM [activator, partial curve]. For `COc1ccc(CNC(=O)CSc2ncn[nH]2)cc1OC`, the Potency was inconclusive: 3.16 µM [activator, partial curve]. With `CCc1c(C)nc(SCC(=O)N2CCc3ccccc32)[nH]c1=O` the “growth rescue (activation)” value was inactive: -2.22%. For `Cc1cccn2c(=O)c(/C=C(\C#N)C(=O)NC3CCS(=O)(=O)C3)c(Oc3ccc(F)cc3)nc12` (stereo not drawn), the Potency was inconclusive: 20 µM [activator, partial curve]. With `Cc1cc(C)cc(OCC(=O)Nc2ccc(-c3nc4ncccc4o3)cc2C)c1` the “growth rescue (activation)” value was inactive: -1.27%. For `COc1cccc(C2CC(=O)Nc3cc4c(cc32)CCC4)c1` (stereo not drawn), the Potency was inconclusive: 10 µM [activator, partial curve]. In the case of `CC(C)c1ccc(C2(O)C(=O)Nc3cc(Br)ccc32)c(O)c1` (stereo not drawn), the “growth rescue (activation)” value is reported as inactive: -1.63%. With `O=C(Nc1ccnn1C1CCN(C(=O)c2cccc(Cl)c2)CC1)C1CC1` the Potency was inconclusive: 3.98 µM [activator, single point]. With `O=C(CCNS(=O)(=O)c1ccccc1)NCCCSc1ccccc1` the “growth rescue (activation)” value was inactive: -1.23%. For `Cc1cccc(N2CCN(C(=O)c3ccc4nc[nH]c4c3)CC2)c1C`, the “growth rescue (activation)” value was inactive: -4.28%. In the case of `CC1CCc2c(sc(NC(=O)c3ccco3)c2C(=O)O)C1` (stereo not drawn), the “growth rescue (activation)” value is reported as inactive: -41.4%. With `COc1ccc(NC(=S)NCc2ccccc2)c(OC)c1` the “growth rescue (activation)” value was inactive: -12.3%. For `CCCCCc1ccc(CC(=O)Nn2c(C)nc3ccccc3c2=O)cc1`, the Potency was inconclusive: 3.16 µM [activator, full curve]. With `O=C(c1ccco1)N(CCC(c1ccccc1)c1ccco1)Cc1ccco1` (stereo not drawn) the Potency was inconclusive: 12.6 µM [activator, partial curve]. With `O=[N+]([O-])c1ccc(Cn2cc(-c3cccc(C(F)(F)F)c3)nn2)cc1` the “growth rescue (activation)” value was inactive: 13.6%. With `Cc1nc(/N=C(\N)NC(=O)N2c3ccccc3Sc3ccccc32)nc2ccccc12` the Potency was inconclusive: 8.91 µM [activator, partial curve]. With `CCCc1cc(C(=O)NNC(=S)Nc2cccc(C)c2)cs1` the Potency was inconclusive: 28.2 µM [activator, single point]. With `O=[N+]([O-])c1nn(-c2ccc3c(c2)OCCO3)n(O)c1=NCc1ccc(F)cc1` the Potency was inconclusive: 12.6 µM [activator, partial curve]. With `CC(C)C(NC(=O)c1ccccc1)C(=O)OCC(=O)N1CCN(c2ccccc2)CC1` (stereo not drawn) the “growth rescue (activation)” value was inactive: -5.02%. In the case of `CCc1ccc(S(=O)(=O)NCCc2csc(-c3ccccc3)n2)s1`, the Potency is reported as inconclusive: 14.1 µM [activator, partial curve]. With `COc1ccc(/C=C/C(=O)O)cc1COc1ccccc1C` the Potency was inconclusive: 12.6 µM [activator, partial curve]. In the case of `CCCOC(=O)c1ccc(NC(=O)c2ccoc2C)cc1`, the Potency is reported as inconclusive: 17.8 µM [activator, partial curve]. In the case of `Cc1sc2ncnc(N3CCC(C(=O)Nc4nc(-c5cccs5)cs4)CC3)c2c1C`, the Potency is reported as inconclusive: 3.55 µM [activator, single point]. In the case of `O=C1C(Cl)=C(N2CCN(c3ccccc3[N+](=O)[O-])CC2)C(=O)c2ccccc21`, the Potency is reported as inconclusive: 12.6 µM [activator, partial curve]. For `O=S1(=O)C[C@H]2NC(=S)N(c3ccccc3)[C@H]2C1`, the “growth rescue (activation)” value was inactive: -1.55%. In the case of `O=[N+]([O-])c1cc([N+](=O)[O-])c(N2CCOCC2)cc1NCc1ccccc1`, the Potency is reported as inconclusive: 11.2 µM [activator, partial curve]. In the case of `O=C(O)c1ccc(S(=O)(=O)N2CCC(Cc3ccccc3)CC2)cc1`, the Potency is reported as inconclusive: 14.1 µM [activator, partial curve]. With `CCOC(=O)c1sc2nc(C)n(N)c(=O)c2c1C` the “growth rescue (activation)” value was inactive: 0.645%. For `O=C1CC(c2ccco2)c2ccc3ccccc3c2N1` (stereo not drawn), the “growth rescue (activation)” value was inactive: 21.9%. In the case of `CCOc1c(C)cnc2c1c(=O)n(Cc1ccc(Cl)cc1)c(=O)n2C`, the Potency is reported as inconclusive: 3.98 µM [activator, full curve]. For `Clc1ccc(-c2cn3c(n2)-c2ccccc2C3)cc1Cl`, the Potency was inconclusive: 7.08 µM [activator, partial curve]. In the case of `Cn1cnc(S(=O)(=O)N2CCN(C(c3ccccc3)c3ccccc3)CC2)c1`, the Potency is reported as inconclusive: 12.6 µM [activator, single point]. With `CN(C)c1ccc(/C=N/NC(=O)CCCO)cc1` the Potency was inconclusive: 11.2 µM [activator, partial curve]. For `N#C/C(=C/c1cccs1)c1nc2ccccc2[nH]1`, the Potency was inconclusive: 17.8 µM [activator, partial curve]. In the case of `COc1ccc(Cl)cc1NC(=O)CN(C)Cc1cccs1`, the Potency is reported as inconclusive: 35.5 µM [activator, partial curve]. For `NC(=O)c1ccc(Oc2ccc3c(c2)CCC3)c([N+](=O)[O-])c1`, the Potency was inconclusive: 17.8 µM [activator, partial curve]. With `Cc1ccccc1C(=O)NC(=S)Nc1sc2c(c1C#N)CCCC2` the Potency was inconclusive: 10 µM [activator, partial curve]. For `Cc1c(C(=O)N2CCN(c3ccccc3)CC2)oc2c(Cl)cccc12`, the Potency was inconclusive: 22.4 µM [activator, single point]. In the case of `COc1ccc(OC)c(NC(=O)C2CC(=O)N(CCc3ccccc3)C2)c1` (stereo not drawn), the Potency is reported as inconclusive: 15.8 µM [activator, single point]. For `O=C(/C=C\c1ccccc1)NCC(=O)N/N=C/c1ccc(O)cc1O`, the Potency was inconclusive: 2.82 µM [activator, single point]. In the case of `Cc1ccc2cc(-c3noc(C(C)(C)C)n3)c(=O)[nH]c2c1`, the “growth rescue (activation)” value is reported as inactive: -1.84%. For `COc1ccc(NC(=O)CCN2CCN(c3ccc(F)cc3)CC2)cc1`, the “growth rescue (activation)” value was inactive: -8.13%. For `COc1ccc([N+](=O)[O-])cc1NC1C2CC3CC(C2)CC1C3` (stereo not drawn), the “growth rescue (activation)” value was inactive: -0.805%. In the case of `CN(CC(=O)Nc1ccccc1Cl)C(=O)c1ccccc1Sc1ccccc1C#N`, the Potency is reported as inconclusive: 11.2 µM [activator, partial curve]. For `COc1ccc(/C=C/C(=O)NCc2cn(C)nc2C)cc1COc1ccc(Br)cc1`, the “growth rescue (activation)” value was inactive: 4.72%. In the case of `CCn1c(=O)n(CC)c2cc(N3CCCC3)c(NC(=O)c3ccccc3OC)cc21`, the Potency is reported as inconclusive: 10 µM [activator, partial curve]. For `Cc1cc(C)c2oc(C(=O)Nc3nnc(C(C)C)s3)cc(=O)c2c1`, the Potency was inconclusive: 15.8 µM [activator, partial curve]. For `COc1ccc(Cn2nnnc2CN2CCC(c3nc4ccccc4s3)CC2)cc1`, the “growth rescue (activation)” value was inactive: -4.31%. With `CN(Cc1ccccc1)c1nc(-c2cccc([N+](=O)[O-])c2)nc2ccccc12` the “growth rescue (activation)” value was inactive: 14.8%. For `C=CCn1c(SCC(=O)N2CCc3ccccc3C2)nc2sc(C)c(C)c2c1=O`, the Potency was active: 12.6 µM. For `C/C(=N\NC(=O)CCc1ccccc1)C1C(=O)c2ccccc2C1=O`, the “growth rescue (activation)” value was inactive: -0.0454%. With `CCOC(=O)N1CCN(C(=O)c2ccc3c(Cl)c4c(nc3c2)CCCC4)CC1` the Potency was inconclusive: 5.62 µM [activator, single point]. In the case of `O=C(c1ccc2[nH]c3c(c2c1)CCCC3)N1CCN(c2ccc(F)cc2)CC1`, the Potency is reported as inconclusive: 20 µM [activator, single point]. In the case of `Cc1cc(C)c(NC2=CC(=O)CC(C)(C)C2)c(C#N)c1`, the Potency is reported as inconclusive: 5.01 µM [activator, single point]. With `O=C(NCC1(c2ccccc2)CCCC1)c1ccc(Br)o1` the Potency was inconclusive: 15.8 µM [activator, partial curve]. For `C=CCNc1ccc(C(=O)O)cc1`, the “growth rescue (activation)” value was inactive: 11%. In the case of `COc1cc(Cc2cnc(N)nc2N)cc(OC)c1OC`, the Potency is reported as inconclusive: 4.61 µM [activator, partial curve, poor fit]. In the case of `COc1ccc(-c2ccnc3nc(N4CCN(c5ccccc5)CC4)nn23)cc1`, the Potency is reported as active: 12.6 µM. With `Nc1ncccc1OCc1cccc(C(F)(F)F)c1` the Potency was inconclusive: 11.2 µM [activator, partial curve]. With `CC1CCN(C(=O)CSc2ccc(-c3ccc(F)cc3)nn2)CC1` the “growth rescue (activation)” value was inactive: -0.003%. With `CCCCCCSc1ccc([C@H]2N[C@@](CC(C)C)(C(=O)OC)[C@H]3C(=O)N(C)C(=O)[C@@H]23)cc1` the Potency was inconclusive: 31.6 µM [activator, single point]. With `CCC1(c2cccc(Cl)c2)NC(=O)N(Cc2cc(C(=O)OC)c(C)o2)C1=O` (stereo not drawn) the Potency was inconclusive: 6.31 µM [activator, single point]. In the case of `Cc1cccn2c(=O)c3cc(C(=O)NCCc4ccccc4)c(=N)n(CCCn4ccnc4)c3nc12`, the “growth rescue (activation)” value is reported as inactive: -0.512%. In the case of `CCCC(c1nnnn1Cc1ccco1)N1CCN(c2cc(Cl)ccc2C)CC1` (stereo not drawn), the “growth rescue (activation)” value is reported as inactive: -1.42%. With `C[C@@H]1CC=C[C@H]2[C@H]1C(=O)N(Cc1ccccc1)[C@H]2c1cccc([N+](=O)[O-])c1` the Potency was inconclusive: 12.6 µM [activator, single point]. In the case of `CN(Cc1ccccc1)C(=O)CCn1c(=O)oc2ccccc21`, the “growth rescue (activation)” value is reported as inactive: -2.83%. With `Cc1ccc(C)c(S(=O)(=O)N2CCN(C(=O)CNC(=O)c3ccc4ccccc4c3)CC2)c1` the Potency was inconclusive: 20 µM [activator, single point]. With `CN1OC(Cn2cc(C#N)c(=O)n(C)c2=O)CC1c1ccccc1` (stereo not drawn) the Potency was inconclusive: 14.1 µM [activator, single point]. With `CCN(Cc1ccccc1)C(c1cccc(C#N)c1)c1nnnn1C(C)(C)C` (stereo not drawn) the Potency was inconclusive: 12.6 µM [activator, partial curve]. With `Cc1ccc(C(=O)NN(C)c2nc3ccccc3nc2C(F)(F)F)cc1` the “growth rescue (activation)” value was inactive: -0.137%. For `COc1ccc(OC)c(NC(=O)C(CC(=O)O)NCc2ccco2)c1` (stereo not drawn), the “growth rescue (activation)” value was inactive: 0.0596%. With `CC1(c2ccccc2)CC(C)(C)N(C(=O)CSc2nnc(N)s2)c2ccccc21` (stereo not drawn) the Potency was inconclusive: 20 µM [activator, single point].
